This passage reports binding results from paper PMC12203921.

These are yes or no findings as the source states them, for the method shown. In cells and extracts the contact can be indirect. These calls come from enrichment with a bait or labelling near it, and not all partners need be listed.

The target in the assay is T1, coiled-coil domain-containing 13 (CCDC13) (mouse (endogenous in testis)) (UniProt D3YV10).
T1 sequence: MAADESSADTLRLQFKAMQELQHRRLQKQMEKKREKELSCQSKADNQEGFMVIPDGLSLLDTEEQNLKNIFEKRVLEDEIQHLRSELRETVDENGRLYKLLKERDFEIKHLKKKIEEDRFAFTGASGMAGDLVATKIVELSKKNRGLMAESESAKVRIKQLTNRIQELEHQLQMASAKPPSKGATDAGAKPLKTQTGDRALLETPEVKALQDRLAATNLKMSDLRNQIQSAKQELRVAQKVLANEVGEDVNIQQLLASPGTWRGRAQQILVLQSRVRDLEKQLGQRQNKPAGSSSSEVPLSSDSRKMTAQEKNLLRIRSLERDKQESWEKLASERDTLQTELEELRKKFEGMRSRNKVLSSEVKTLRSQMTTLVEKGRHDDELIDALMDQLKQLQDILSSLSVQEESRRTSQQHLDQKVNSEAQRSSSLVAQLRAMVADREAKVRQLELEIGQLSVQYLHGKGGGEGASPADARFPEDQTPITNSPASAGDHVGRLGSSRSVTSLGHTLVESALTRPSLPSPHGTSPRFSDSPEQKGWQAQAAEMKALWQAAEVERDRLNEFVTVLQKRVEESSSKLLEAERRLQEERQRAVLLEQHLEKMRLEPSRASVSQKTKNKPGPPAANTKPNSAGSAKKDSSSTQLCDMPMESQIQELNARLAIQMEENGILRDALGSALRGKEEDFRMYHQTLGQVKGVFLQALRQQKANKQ
Description: affinity purification with mass spectrometry; immunoprecipitation with the CCDC13 antibody from mouse testis lysate, LC-MS of the precipitate.

B1: CEP131 (protein, UniProt Q62036 1-1060)
chain: MKGSRTITATPEGSPEAVDLSLIGLPPPMSQRPGSASATRSIFRSMSVATGSEPRKKALEATGPGGPRAINNLRRSNSTTQVNQSWTGSPRPAEPTDFLMLFEGSTSGRRRVASLSKASSEKEATWNVLDEQPRGLALPASAQSPSTLDSALGPRRKECPLAPSFTANNRSNKGAVGNCVTTMVHNHYASSKMVSPPKSSNQTAPSLNNIVKAAAREGGEGSDLGKPRKNLSSASQSARGTTGLLRRREVTEEEAERFIHQVNQAAVTIQRWYRCQVQRRRAGAAALEHLLASKREGQRQRLGGGNLLELHRQEEAARKKAREEKARQARQAAIQVLQQKRAQKASEAEHRRPKDRPETRAPEQPRPMQEPGCVTHPKANNAGASIYPTGPADPCPPASESSPEQWQSPEDKPQDIHSQGEARQDLAVSGSSRGKARARATLDDLLDTLKLLEEEPEPLPHPKAYHKDRYAWTDEEEDANSLTADNLEKFGKLSAAPGPPDDGTLLSEAKLQSIMTFLDEMEKSGQERPAPWRESLVLEAGSGSEGSTSVMRLKLELEEKKQAMALLQRALAQQRDLTVRRVKETEKELTRQLRQQKEQYEATIQRHLSFIDQLIEDKKVLSEKCEAVVAELKHGDQRCRERVAQMQEQHELEIKKLKELMSATEKIRREKWINEKTKKIKEITVRGLEPEIQKLIAKHKQEVRRLRGLHEAELQQREEQAAQRHLRQAEELRQHLDREREVLGQQERERAQQRFEQHLEQEQRALEQQRRRLYNEVAEEKERLGQQAARQRAELEELRQQLEESSAALTRALRAEFERSREEQERRHQMELKALKDQLEAERQAWVASCAKKEEAWLLTRERELKEEIRKGRDQEIELVIHRLEADMTLAKEESERAAESRVKRVRDKYETELSELEQSERKLQERCSELKGRLGEAEGEKERLQSLVRQKEKELEDLRAVNTQMCSERASLAQVVRQEFAEQLAASQEETQRVKVELAELQARQQVELDEVHRRVKTALARKEAAVNSLRKQHEAAVKRADHLEELLEQHKGSSLSSK
With B1, the binding entry is “binds”.

B2: BBS4 (protein, UniProt Q8C1Z7 1-520)
chain: MAEVKLGMKTQVPASVESQKPRSKKAPDFPIVEKQNWLIHLHYIRKDYEACKAVIKEQLQETQGLCEYAIYVQALIFRLEGNIQESLELFQTCAVLSPQCADNLKQVARSLFLLGKHKAATEVYNEAAKLNQKDWEICHNLGVCYTYLKQFNKAQDQLHSALQLNKHDLTYIMLGKIHLLQGDLDKAIEIYKKAVEFSPENTELLTTLGLLYLQLGVYQKAFEHLGNALTYDPANYKAILAAGSMMQTHGDFDVALTKYRVVACAIPESPPLWNNIGMCFFGKKKYVAAISCLKRANYLAPFDWKILYNLGLVHLTMQQYASAFHFLSAAINFQPKMGELYMLLAVALTNLEDIENARRAYVEAVRLDKCNPLVNLNYAVLLYNQGEKKSALAQYQEMEKKVNFLKDNSPLEFDSEMVEMAQKLGAALQVGEALVWTKPVKDPKTKHRTNSGSKSATLQQPLGSIQALGQAMSSAAAYRKILSGAVGAQLPKPPSLPLEPEPEPTVEASPTEASEQKKEK
For the molecule B2, the binding result is “binds”.
